Values of other authors in US20230241014A1, “MEK-INHIBITORS FOR THE TREATMENT OR PREVENTION OF CORONAVIRUS INFECTIONS AND/OR COVID-19 CYTOKINE STORM” (priority 2020, published 2023).
At least one structure is not confirmed: it was looked up by name or label, or the drawing left a doubt.

Tested on: SARS-CoV-2
Conditions: human, in vivo; cited from earlier work

Structure (SMILES): CCC(CC)COC(=O)[C@H](C)N[P@](=O)(OC[C@H]1O[C@@](C#N)(c2ccc3c(N)ncnn23)[C@H](O)[C@@H]1O)Oc1ccccc1 [Remdesivir]
- length of hospitalization: decrease the length of hospitalization
- mortality: no significant effect on mortality
